Values of other authors as cited in patent US6362219B1 (Council of Scientific and Industrial Research, priority 1999, dated 2002).
Some entries share one result that the patent states for a list of compounds. At least one structure is not confirmed: it was looked up by name or label, or the drawing left a doubt.

Settings: rats; cited from earlier work

CCO[C@H]1O[C@@H]2O[C@@]3(C)CC[C@H]4[C@H](C)CC[C@@H]([C@H]1C)[C@@]24OO3 [arteether]
DHA level after dosing as % of those after im dosing with DHA: less than 2.6%
